Test results as given in PubChem BioAssay AID662 (National Center for Advancing Translational Sciences (NCATS), 2007).
This is one part of the list. These are further read-outs of the screen, such as a control signal, another cell line or another target. No call is given for them. Most of these compounds were active or inconclusive in the main read-out, so they are no random draw. Words in brackets tell the shape of the fitted curve; partial curves, single points and poor fits give uncertain potencies.

Experiment: Cell signaling CRE-BLA (Fsk stim)
Details: CHO CRE-bla reporter (cAMP response element driving beta-lactamase), forskolin EC10, beta-lactamase ratio; measured here: 460 nm blue channel
Summary of the method: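 Titrated compounds plus EC10 NKH 477 on CHO CRE-bla cells, 3 h, 37 °C. CCF4, 2 h RT. Ratio 460/530 nm → AC50.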

| Structure (SMILES) | AC50 |
| --- | --- |
| Clc1ccc(Cl)c(Nc2ccnc(SCc3ccccc3)n2)c1 | 3.16 µM [rising, single point] |
| CCn1c(SC/C=C/c2ccccc2)nnc1-c1cccs1 | 0.316 µM [falling, full curve, poor fit] |
| CN(C)C(=O)c1ccc(-c2cncnc2NC2CCNCC2)cc1 | 12.6 µM [rising, partial curve, poor fit] |
| CC(C)C(=O)N1CCC(CN=Cc2c(O)n(C3CCCCC3)c(=O)n(C3CCCCC3)c2=O)CC1 | 25.1 µM [falling, single point] |
| CCCCCCCCCCCCCCCCCC(=O)O[C@H](CC(=O)O)C[N+](C)(C)C | 12.6 µM [falling, single point] |
| CCOC(=O)C1CCCN(C(=O)c2cncc(Br)c2)C1 (stereo unspecified) | 2 µM [falling, partial curve] |
| Cc1noc(C)c1-c1nccc(N2CCOCC2)n1 | 5.01 µM [rising, full curve] |
| Cc1cc(N2CCOCC2)c2c(N)c(Br)cc(C)c2n1 | 0.398 µM [rising, partial curve] |
| CC1CN(c2ccccc2)C(=O)CS1 (stereo unspecified) | 15.8 µM [falling, single point] |
| Cc1cc2cc(CCNC(=O)c3c(-c4ccccc4Cl)noc3C)c(=O)[nH]c2cc1C | 12.6 µM [rising, single point] |
| Nc1c(C(=O)OCC2CCCO2)c2nc3ccccc3nc2n1C1CCCCC1 (stereo unspecified) | 10 µM [rising, partial curve] |
| COc1ccc(-c2nc(C#N)c(NC(C)C)o2)cc1 | 10 µM [rising, partial curve, poor fit] |
| Cc1ccc(S(=O)(=O)Nc2cccc3ncccc23)s1 | 12.6 µM [rising, single point] |
| N#Cc1nc(-c2ccc(Cl)cc2)oc1NCc1ccco1 | 12.6 µM [rising, partial curve] |
| COc1cc(OC)c(/C=C2/C(=O)Nc3ccccc32)c(OC)c1 | 12.6 µM [rising, partial curve] |
| Cn1c2ccccc2c2c(C(=O)N3CCN(c4ccccn4)CC3)cn(C3CCCC3)c(=O)c21 | 10 µM [rising, partial curve, poor fit] |
| OCCNc1nc(-c2cccnc2)nc2ccccc12 | 3.16 µM [rising, full curve] |
| Cc1ccccc1-n1c(=O)cc(NCc2ccc3c(c2)OCO3)[nH]c1=O | 0.0158 µM [falling, full curve, poor fit] |
| CCn1ncc(Br)c1C(=O)N(C)C12CC3CC(CC(C3)C1)C2 | 7.94 µM [rising, single point] |
| COc1ccc2c(c1)CCc1c(C(=O)Nc3c(C)n(C)n(-c4ccccc4)c3=O)noc1-2 | 3.98 µM [rising, partial curve] |
| CN(Cc1ccco1)c1ncnc2ccc(-c3cccc(NS(C)(=O)=O)c3)cc12 | 2 µM [rising, full curve] |
| O=c1c(CCc2ccccc2)nc2cnc(Nc3ccccc3)nc2n1C[C@H]1CCCO1 | 7.94 µM [rising, partial curve] |

Not a retest: an excerpt of the list.

| Structure (SMILES) | AC50 |
| --- | --- |
| Cc1cc2cc(CCNC(=O)c3c(-c4ccccc4Cl)noc3C)c(=O)[nH]c2cc1C | 12.6 µM [rising, single point] |
| Nc1c(C(=O)OCC2CCCO2)c2nc3ccccc3nc2n1C1CCCCC1 (stereo unspecified) | 10 µM [rising, partial curve] |
| COc1ccc(-c2nc(C#N)c(NC(C)C)o2)cc1 | 10 µM [rising, partial curve, poor fit] |
| Cc1ccc(S(=O)(=O)Nc2cccc3ncccc23)s1 | 12.6 µM [rising, single point] |

Later entries.

| Structure (SMILES) | AC50 |
| --- | --- |
| Cn1cc(C2=C(c3ccc(Cl)cc3Cl)C(=O)NC2=O)c2ccccc21 | 3.98 µM [falling, partial curve] |
| COc1cc2c(C(=O)NCc3ccc(C)o3)cn(CC(C)C)c(=O)c2cc1OC | 3.16 µM [rising, full curve] |
| COCCNS(=O)(=O)c1cc(-c2nn(C)c(=O)c3ccccc23)ccc1C | 10 µM [rising, partial curve] |
| COCCn1c(=O)c(-c2cc(F)cc(F)c2)nc2cnc(Oc3cccc(Cl)c3)nc21 | 10 µM [rising, partial curve] |
| O=C(c1ccccc1)c1cccn1CC(=O)N1CCCCCC1 | 31.6 µM [falling, partial curve, poor fit] |
| COc1ccc(-c2noc(CCCc3ccccc3)n2)cc1OC | 5.01 µM [rising, partial curve] |
| Cc1cccn2c(=O)c3cc(C(=O)NCc4ccco4)c(=N)n(CCc4ccccc4)c3nc12 | 20 µM [rising, single point] |
| O=C(CN1CCN(c2ccccc2)CC1)Nc1c(C(=O)C2CC2)oc2ccccc12 | 0.0126 µM [rising, full curve] |
| COc1ccc(-c2nc3cnc(OC)nc3n(-c3ccccc3)c2=O)cc1 | 3.16 µM [rising, full curve] |
| Cn1c(-c2c(N)n(C3CCCC3)c3nc4ccccc4nc23)nc2ccccc21 | 5.01 µM [rising, partial curve] |
| CCCC1(c2ccccc2)NC(=O)N(CC(=O)c2[nH]c(C)c(C(=O)OCC)c2C)C1=O (stereo unspecified) | 7.94 µM [rising, partial curve] |
| CC(C)Nc1nc(NC(C)C)nc(Oc2ccc(/C=N/O)cc2)n1 | 0.398 µM [falling, partial curve] |
| NC(=O)C1CCN(C(=O)CCCCCn2c(=O)[nH]c3ccsc3c2=O)CC1 | 0.126 µM [falling, partial curve] |
| O=C1c2ccccc2-c2nc3ncnn3c(-c3ccccc3Cl)c21 | 12.6 µM [rising, partial curve] |
| CCCn1c(=O)c(C(=O)Nc2ccccc2C(=O)OC)c(O)c2ccccc21 | 3.16 µM [rising, partial curve] |
| CC(=O)Nc1ccc(N=Cc2nc(-c3ccc(C)cc3)oc2O)cc1 | 5.01 µM [rising, partial curve] |
| CCOC(=O)c1cccc(NC(=O)CSc2nc3ccccc3c(=O)n2CCOC)c1 | 20 µM [rising, single point] |
| O=C(Nc1cccnc1N1CCOCC1)c1ccco1 | 12.6 µM [rising, single point] |
| COc1ccccc1-c1cc(-n2ccnc2)ncn1 | 10 µM [rising, partial curve] |
| O=C(Nc1ccc2oc(-c3ccccc3)nc2c1)c1cccnc1 | 12.6 µM [rising, partial curve] |
| COc1cc2c(cc1OC)/C(=C/C(=O)N1CCOCC1)NC(C)(C)C2 | 3.16 µM [rising, partial curve] |
| Cc1cccc(Nc2cc(Cl)nc(SCC(=O)O)n2)c1C | 31.6 µM [falling, partial curve, poor fit] |

| Structure (SMILES) | AC50 |
| --- | --- |
| Cc1ccc(-c2nn(-c3ccccc3)c3[nH]c(=O)c(CNCCN(C)C)cc23)cc1 | 0.00631 µM [falling, full curve, poor fit] |
| FC(F)(F)c1nc2nc(Cl)c(Cl)nc2n1CCCN1CCOCC1 | 5.01 µM [rising, single point] |
| Nc1c(S(=O)(=O)c2cccc(Cl)c2)c2nc3ccccc3nc2n1CCN1CCOCC1 | 10 µM [rising, partial curve] |
| Cc1cccc(CNc2ccnc(-c3cccnc3)n2)c1 | 5.01 µM [rising, single point] |
| Cc1cc(NC(=O)CC2CCCC2)n(-c2nc3ccccc3[nH]2)n1 | 5.01 µM [falling, single point] |
| O=C(CSc1nnc(Cc2ccccc2)o1)N1CCc2ccccc21 | 25.1 µM [rising, single point] |
| COc1ccc(-c2cc(C(=O)OCC(=O)N3CCCC3)c3ccccc3n2)cc1 | 15.8 µM [rising, single point] |
| CC[C@H](C)C(=O)O[C@H]1CCC=C2C=C[C@H](C)[C@H](CC[C@@H]3C[C@H](O)CC(=O)O3)[C@H]21 | 25.1 µM [rising, partial curve, poor fit] |
| COc1cccc(Nc2ncc3nc(-c4ccccc4)c(=O)n(Cc4cccs4)c3n2)c1 | 2 µM [rising, partial curve] |
| CSC1=C(C#N)C(c2ccccc2C)C(C#N)=C(N)N1 (stereo unspecified) | 12.6 µM [rising, partial curve] |
| O=C(NCCCN1CCOCC1)C1CC(=O)N(CCc2ccccc2)C1 (stereo unspecified) | 0.00398 µM [falling, full curve, poor fit] |
| Cc1ccc(Nc2cc(C)nc3nc(C)nn23)c(C)c1 | 12.6 µM [rising, single point] |
| CCNc1cc2oc(=O)c(CN3CCOCC3)c(C)c2cc1C | 3.16 µM [rising, partial curve] |
| O=C1CC(N2CCN(c3ccc(Cl)c(Cl)c3)CC2)C(=O)N1 (stereo unspecified) | 1.26 µM [rising, partial curve, poor fit] |
| Cc1cc(C(=O)OCC(=O)Nc2ccc(F)cc2F)c(C)o1 | 3.98 µM [falling, single point] |
| COC(=O)c1cc(=O)n(Cc2ccco2)c(=Nc2ccc(F)c(Cl)c2)s1 | 3.16 µM [falling, full curve] |
| O=S(=O)(c1ccc(Cl)c(F)c1)N1CCC(c2nc(-c3ccncc3)no2)CC1 | 25.1 µM [falling, single point] |
| COc1ccc(Oc2ncc3nc(-c4cn(C)c5ccccc45)c(=O)n(C)c3n2)cc1 | 5.01 µM [rising, partial curve] |
| CCN(C(=O)c1cn(C)c(=O)c2cc(OC)c(OC)cc12)c1cc(C)ccc1C | 6.31 µM [rising, partial curve, poor fit] |
| O=C1CC(c2ccccc2)Cc2nc(N3CCc4ccccc43)ncc21 (stereo unspecified) | 12.6 µM [rising, single point] |
| COc1ccc(NC(=O)N2CCN(c3nc(-c4cccc(OC)c4)cs3)CC2)cc1 | 12.6 µM [falling, partial curve] |
| Cc1c(C2N3CC4(C)CN2CC(C)(C3)C4=O)c2ccccc2n1C (stereo unspecified) | 3.16 µM [rising, single point] |
